No constants are given. Whether binding was seen depends on the method and setting. In cells and extracts the contact can be indirect. A yes stands for co-enrichment or nearness to the bait. Other partners may have been found.
Target: Flag-JAK1 (Janus kinase 1) (human) (UniProt P23458)
Test: affinity purification with mass spectrometry; Flag-JAK1 plasmid transfected into HEK293T cells with or without KRT6A plasmid; MG132 (50 uM) 4 h; NP-40 lysis buffer; anti-Flag magnetic beads 2 h; washes in 25 mM Tris pH 8.0, 150 mM NaCl, 0.2% NP40; Q Exactive mass spectrometry

Protein sequences, listed by entry. Tags and fused reporters are not part of them.
UniProt P23458: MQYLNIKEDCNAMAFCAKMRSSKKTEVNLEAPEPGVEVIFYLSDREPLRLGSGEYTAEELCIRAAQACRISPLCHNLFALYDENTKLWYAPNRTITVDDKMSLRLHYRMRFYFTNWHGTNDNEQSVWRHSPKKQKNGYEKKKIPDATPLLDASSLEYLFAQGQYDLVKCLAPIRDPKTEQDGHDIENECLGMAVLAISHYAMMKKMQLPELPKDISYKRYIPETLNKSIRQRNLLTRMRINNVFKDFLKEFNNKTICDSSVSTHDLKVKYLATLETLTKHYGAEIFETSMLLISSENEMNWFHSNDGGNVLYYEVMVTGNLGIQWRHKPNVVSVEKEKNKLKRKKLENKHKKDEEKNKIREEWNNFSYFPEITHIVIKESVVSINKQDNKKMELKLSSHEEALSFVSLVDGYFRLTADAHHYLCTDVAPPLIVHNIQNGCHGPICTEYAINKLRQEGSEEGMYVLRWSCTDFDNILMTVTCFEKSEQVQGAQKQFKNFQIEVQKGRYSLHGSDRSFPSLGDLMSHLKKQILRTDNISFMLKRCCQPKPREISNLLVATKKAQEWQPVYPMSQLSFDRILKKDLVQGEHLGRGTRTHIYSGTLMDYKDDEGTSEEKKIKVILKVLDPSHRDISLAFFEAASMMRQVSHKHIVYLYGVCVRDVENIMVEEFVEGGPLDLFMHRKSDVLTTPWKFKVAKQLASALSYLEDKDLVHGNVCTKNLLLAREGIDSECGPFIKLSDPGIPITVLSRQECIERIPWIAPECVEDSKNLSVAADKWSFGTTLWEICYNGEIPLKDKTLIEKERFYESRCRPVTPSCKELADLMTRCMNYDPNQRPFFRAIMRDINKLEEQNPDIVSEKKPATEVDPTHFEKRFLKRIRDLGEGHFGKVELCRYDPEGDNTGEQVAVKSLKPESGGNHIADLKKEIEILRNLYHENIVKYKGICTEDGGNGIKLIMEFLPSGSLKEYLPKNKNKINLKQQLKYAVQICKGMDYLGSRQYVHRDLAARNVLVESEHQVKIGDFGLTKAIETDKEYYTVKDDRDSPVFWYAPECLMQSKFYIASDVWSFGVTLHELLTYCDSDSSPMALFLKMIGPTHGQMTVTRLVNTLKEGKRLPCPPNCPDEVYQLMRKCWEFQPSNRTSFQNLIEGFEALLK

binding: binds
B1: RNF41, endogenous (hit of the JAK1 IP-MS) (enzyme, UniProt Q9H4P4 1-317)
chain: MGYDVTRFQGDVDEDLICPICSGVLEEPVQAPHCEHAFCNACITQWFSQQQTCPVDRSVVTVAHLRPVPRIMRNMLSKLQIACDNAVFGCSAVVRLDNLMSHLSDCEHNPKRPVTCEQGCGLEMPKDELPNHNCIKHLRSVVQQQQTRIAELEKTSAEHKHQLAEQKRDIQLLKAYMRAIRSVNPNLQNLEETIEYNEILEWVNSLQPARVTRWGGMISTPDAVLQAVIKRSLVESGCPASIVNELIENAHERSWPQGLATLETRQMNRRYYENYVAKRIPGKQAVVVMACENQHMGDDMVQEPGLVMIFAHGVEEI
